These are yes or no findings as the source states them, for the method shown. Binding seen in cells or lysates may run through a third protein. Binding calls can cover weak binding; strength is not graded here. Where a sequence is shown, tags or fusion partners need not be part of it.
Legend:
Assay in all cases: co-IP
[1] = target: T1, SAS-6-GFP (Drosophila SAS-6 expressed in fission yeast) (Drosophila) (UniProt Q9VAC8)
T1 sequence: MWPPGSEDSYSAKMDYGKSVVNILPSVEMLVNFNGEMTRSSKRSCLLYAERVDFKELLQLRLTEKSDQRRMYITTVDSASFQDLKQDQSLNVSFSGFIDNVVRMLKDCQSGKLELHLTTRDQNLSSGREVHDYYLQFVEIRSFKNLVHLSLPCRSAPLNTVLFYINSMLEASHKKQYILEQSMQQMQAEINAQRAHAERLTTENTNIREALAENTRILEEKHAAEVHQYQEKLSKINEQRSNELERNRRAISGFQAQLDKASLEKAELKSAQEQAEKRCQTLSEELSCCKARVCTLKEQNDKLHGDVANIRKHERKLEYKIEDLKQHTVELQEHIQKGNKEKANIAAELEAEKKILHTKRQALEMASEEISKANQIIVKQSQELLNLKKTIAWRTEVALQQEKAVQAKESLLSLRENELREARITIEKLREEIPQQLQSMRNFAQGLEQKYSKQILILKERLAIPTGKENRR

[2] = target: T2, SAS-6-EGFP (Drosophila SAS-6 expressed in D.Mel cells) (Drosophila) (UniProt Q9VAC8)
T2 sequence: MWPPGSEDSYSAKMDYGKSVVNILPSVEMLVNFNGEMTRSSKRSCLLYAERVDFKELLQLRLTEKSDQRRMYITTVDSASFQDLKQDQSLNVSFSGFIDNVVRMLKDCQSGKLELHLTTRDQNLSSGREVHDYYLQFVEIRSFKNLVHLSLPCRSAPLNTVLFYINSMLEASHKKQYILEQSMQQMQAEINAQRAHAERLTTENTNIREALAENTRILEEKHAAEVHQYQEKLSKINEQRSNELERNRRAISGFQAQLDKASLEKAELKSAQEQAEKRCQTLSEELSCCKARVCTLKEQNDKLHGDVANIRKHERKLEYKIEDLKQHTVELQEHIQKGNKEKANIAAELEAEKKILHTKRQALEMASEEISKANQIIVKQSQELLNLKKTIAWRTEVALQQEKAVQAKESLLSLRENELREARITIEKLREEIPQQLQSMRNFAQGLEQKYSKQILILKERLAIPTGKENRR

[3] = target: Bld10-GFP (Drosophila Bld10/CEP135 expressed in fission yeast) (Drosophila)

Molecule: mCherry-tagged Pcp1 truncation C (C-terminal region containing the conserved PACT domain) (S. pombe) (domain or fragment)
- binding [1]: binds

Molecule: HA-tagged PLP fragment containing the conserved PACT domain (Drosophila) (domain or fragment)
- binding [2]: binds

B1: HA-tagged Pcp1 (fission yeast pericentrin orthologue) (protein, UniProt Q92351 1-1208)
chain: MSERDFNTQSPKFKDENANSVISQSDFLGKSLKNNNDDYSDFRGSYLNDKSSFQTPLRNGSYQPKGSLEFTPLLQSSNKNSDKYNGSLGDKGSFDPNSYGLSAISKQATQEALSISQGNDSYDVSKLTDLSKNSEIDHTDGELPANAALTLREQEKVLEKVSRENFGLRIKIVCLEKRLESMAPEQIKEAVKDNVELHAERANLQLQLKRTESLLQKSEDKNFKLEEKVDYLSKVNDVEQSQNVKVFTERIRFLENALEKVQREKDSLSTEMEEDKSNKEVDYEYEIRQLQNRLDELSEELDVAQDLLTEKEDEIATLKRQIEEKENSSSAFENEENSSYVHLQEDYAILQAKCDEFADRIQVLTADLEKEKENQIMHESEASIGLTDSMQVHTLQEQLHKANEEIEFLHDQISRMNEEGKNFEDIMLQFRSLEEERDVLESKLQTLEDDNNSLRLMTSSLGNQIESLRTQNREIDEEKNHLRLLASKNSDKALAETNIRLQEVTKELETLRMKNSNDLNEIHDLREENEGLTLKIDSITKEKDRLINELEQRIKSYEVNVSELNGTIDEYRNKLKDKEETYNEVMNAFQYKDNDLRRFHESINKLQDREKELTSNLEKKNLVISSLRETVAMLEKERESIKKYLSGNAKDLDNTNLMEILNDKISVLQRQLTDVKDELDVSEEEREEAIVAGQKLSASFELMSNEKQALELKYSSLKNELINAQNLLDRREEELSELSKKLFEERKIRSGSNDDIEKNKEINVLNSELADKLAQIRHLESDKMELDKLVHHLNRGIEEANIEENAVKKRLCLLMGCDYSSVSILQIVSQIEHFVNQQIQTIRSLKQELRHDFVQFSGKKEQELSRSFEKFGLGTETKHDILAQRNRNVSEKMNDLENAAQKFFSSPDRKNGYLYPSEHTSKIEYLEKTIEDLKLALQDELKNRNLLMDDISSYNKQTTKLQEKIKWLERERSILIDELESYRSNQFNYQNNLVQDKNELEERLKEIQKELEVYNNHFMKQAELMTSNVTDESQLMLKTLREALQSKTNNIDHLSTILERNRKEYKSLLDDYNQLRARYKNLQSNTPQSTQSGQYESEIKGLSKLTKYLQSKCRREHSLRLDLAFSKKFILMQLTGYETCNKINLRMLQKIGISPDPDLSKKHIKLKSLIIVVCSIERMKRMKNEWLKQAQLKQSLQRAAAKAKTANY
- binding [3]: binds

From doi:10.1101/313494
